Assay: Parallel artificial membrane permeability assay (PAMPA-BBB)
Assay type: in vitro ADME
Conditions: source data
Source text: The PAMPA methodology is a high-throughput technique to predict passive permeability through biological membranes that employs a brain lipid porcine as membrane. […]
From this equation and following the pattern established in the literature for BBB permeation prediction2 we could classify compounds as CNS + when they present a permeability > 4.50 x 10-6 cm s-1. Source data are provided as a Source Data file. […]
Parallel artificial membrane permeability assays. Prediction of the brain penetration was evaluated using a parallel artificial membrane permeability assay (PAMPA).4 Ten commercial drugs, phosphate buffer saline solution at pH 7.4 (PBS). DMSO and dodecane were purchased from Sigma, Across organics, Aldrich and Fluka. The porcine […]
plate was a 96-well filtrate plate (Multiscreen® IP Sterile Plate PDVF membrane, pore […]
MAIPS4510) and the acceptor plate was an indented 96-well plate (Multiscreen®, catalog no. MAMCS9610) both from Millipore. Filter PDVF […]
membrane units (diameter 30 mm, pore size 0.45 µm) from Symta were used to filter the samples. A 96-well plate UV reader (Thermoscientific, Multiskan spectrum) was used for the UV measurements.

## CC(C)NCC(O)COc1ccc(CC(N)=O)cc1 (stereo not drawn) [Atenolol]
  Pe (10-6 cm s-1) Experimental 1: 1.1 10-6 cm s-1
  Pe (10-6 cm s-1) Experimental 2: 0.56 10-6 cm s-1
  Pe (10-6 cm s-1) Experimental 3: 1.60 10-6 cm s-1

From publication PMC6595003, “Insights into real-time chemical processes in a calcium sensor protein-directed dynamic library” (Nature Communications, 2019)
